From PMC8473724

T1: FLAG-PTP1B D181A-Y46F substrate trapping mutant (full-length) (UniProt P18031)
T1 sequence: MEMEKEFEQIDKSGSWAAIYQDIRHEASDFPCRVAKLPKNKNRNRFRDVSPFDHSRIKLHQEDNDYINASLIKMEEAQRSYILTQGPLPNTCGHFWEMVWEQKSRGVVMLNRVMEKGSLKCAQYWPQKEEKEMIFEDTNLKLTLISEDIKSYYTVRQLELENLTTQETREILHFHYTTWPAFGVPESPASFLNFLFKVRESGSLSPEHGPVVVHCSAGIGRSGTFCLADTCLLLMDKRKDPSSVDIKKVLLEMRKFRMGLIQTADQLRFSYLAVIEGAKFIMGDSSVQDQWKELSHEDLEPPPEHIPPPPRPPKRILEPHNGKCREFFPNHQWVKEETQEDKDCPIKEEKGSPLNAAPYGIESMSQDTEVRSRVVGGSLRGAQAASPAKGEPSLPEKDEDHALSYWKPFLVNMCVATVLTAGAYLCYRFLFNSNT


Molecular target: T1, FLAG-PTP1B D181A-Y46F substrate trapping mutant (full-length)
Test: affinity purification with mass spectrometry; SILAC substrate trapping: anti-FLAG co-IP from PTP1B KO Ramos cells with empty vector, FLAG-PTP1B-D181A-Y46F or its Δ406-435 form; elution with FLAG peptide, SDS-PAGE, in-gel digestion, LC-MS; hits: mean SILAC ratio >= 2 and P < 0.05 (n = 3)

| binding | Binder |
| --- | --- |
| binds | Rho GTPase-activating protein 12 (ARHGAP12) (protein, UniProt Q8IWW6 1-846) MKMADRSGKIIPGQVYIEVEYDYEYEAKDRKIVIKQGERYILVKKTNDDWWQVKPDENSKAFYVPAQYVKEVTRKALMPPVKQVAGLPNNSTKIMQSLHLQRSTENVNKLPELSSFGKPSSSVQGTGLIRDANQNFGPSYNQGQTVNLSLDLTHNNGKFNNDSHSPKVSSQNRTRSFGHFPGPEFLDVEKTSFSQEQSCDSAGEGSERIHQDSESGDELSSSSTEQIRATTPPNQGRPDSPVYANLQELKISQSALPPLPGSPAIQINGEWETHKDSSGRCYYYNRGTQERTWKPPRWTRDASISKGDFQNPGDQELLSSEENYYSTSYSQSDSQCGSPPRGWSEELDERGHTLYTSDYTNEKWLKHVDDQGRQYYYSADGSRSEWELPKYNASSQQQREIIKSRSLDRRLQEPIVLTKWRHSTIVLDTNDKESPTASKPCFPENESSPSSPKHQDTASSPKDQEKYGLLNVTKIAENGKKVRKNWLSSWAVLQGSSLLFTKTQGSSTSWFGSNQSKPEFTVDLKGATIEMASKDKSSKKNVFELKTRQGTELLIQSDNDTVINDWFKVLSSTINNQAVETDEGIEEEIPDSPGIEKHDKEKEQKDPKKLRSFKVSSIDSSEQKKTKKNLKKFLTRRPTLQAVREKGYIKDQVFGSNLANLCQRENGTVPKFVKLCIEHVEEHGLDIDGIYRVSGNLAVIQKLRFAVNHDEKLDLNDSKWEDIHVITGALKMFFRELPEPLFTFNHFNDFVNAIKQEPRQRVAAVKDLIRQLPKPNQDTMQILFRHLRRVIENGEKNRMTYQSIAIVFGPTLLKPEKETGNIAVHTVYQNQIVELILLELSSIFGR |
| binds | PLCγ2 (enzyme, UniProt P16885 1-1265) MSTTVNVDSLAEYEKSQIKRALELGTVMTVFSFRKSTPERRTVQVIMETRQVAWSKTADKIEGFLDIMEIKEIRPGKNSKDFERAKAVRQKEDCCFTILYGTQFVLSTLSLAADSKEDAVNWLSGLKILHQEAMNASTPTIIESWLRKQIYSVDQTRRNSISLRELKTILPLINFKVSSAKFLKDKFVEIGAHKDELSFEQFHLFYKKLMFEQQKSILDEFKKDSSVFILGNTDRPDASAVYLHDFQRFLIHEQQEHWAQDLNKVRERMTKFIDDTMRETAEPFLFVDEFLTYLFSRENSIWDEKYDAVDMQDMNNPLSHYWISSSHNTYLTGDQLRSESSPEAYIRCLRMGCRCIELDCWDGPDGKPVIYHGWTRTTKIKFDDVVQAIKDHAFVTSSFPVILSIEEHCSVEQQRHMAKAFKEVFGDLLLTKPTEASADQLPSPSQLREKIIIKHKKLGPRGDVDVNMEDKKDEHKQQGELYMWDSIDQKWTRHYCAIADAKLSFSDDIEQTMEEEVPQDIPPTELHFGEKWFHKKVEKRTSAEKLLQEYCMETGGKDGTFLVRESETFPNDYTLSFWRSGRVQHCRIRSTMEGGTLKYYLTDNLTFSSIYALIQHYRETHLRCAEFELRLTDPVPNPNPHESKPWYYDSLSRGEAEDMLMRIPRDGAFLIRKREGSDSYAITFRARGKVKHCRINRDGRHFVLGTSAYFESLVELVSYYEKHSLYRKMRLRYPVTPELLERYNMERDINSLYDVSRMYVDPSEINPSMPQRTVKALYDYKAKRSDELSFCRGALIHNVSKEPGGWWKGDYGTRIQQYFPSNYVEDISTADFEELEKQIIEDNPLGSLCRGILDLNTYNVVKAPQGKNQKSFVFILEPKQQGDPPVEFATDRVEELFEWFQSIREITWKIDTKENNMKYWEKNQSIAIELSDLVVYCKPTSKTKDNLENPDFREIRSFVETKADSIIRQKPVDLLKYNQKGLTRVYPKGQRVDSSNYDPFRLWLCGSQMVALNFQTADKYMQMNHALFSLNGRTGYVLQPESMRTEKYDPMPPESQRKILMTLTVKVLGARHLPKLGRSIACPFVEVEICGAEYDNNKFKTTVVNDNGLSPIWAPTQEKVTFEIYDPNLAFLRFVVYEEDMFSDPNFLAHATYPIKAVKSGFRSVPLKNGYSEDIELASLLVFCEMRPVLESEEELYSSCRQLRRRQEELNNQLFLYDTHQNLRNANRDALVKEFSVNENQLQLYQEKCNKRLREKRVSNSKFYS |
| binds | guanine nucleotide exchange factor VAV1 (protein, UniProt P15498 1-845) MELWRQCTHWLIQCRVLPPSHRVTWDGAQVCELAQALRDGVLLCQLLNNLLPHAINLREVNLRPQMSQFLCLKNIRTFLSTCCEKFGLKRSELFEAFDLFDVQDFGKVIYTLSALSWTPIAQNRGIMPFPTEEESVGDEDIYSGLSDQIDDTVEEDEDLYDCVENEEAEGDEIYEDLMRSEPVSMPPKMTEYDKRCCCLREIQQTEEKYTDTLGSIQQHFLKPLQRFLKPQDIEIIFINIEDLLRVHTHFLKEMKEALGTPGAANLYQVFIKYKERFLVYGRYCSQVESASKHLDRVAAAREDVQMKLEECSQRANNGRFTLRDLLMVPMQRVLKYHLLLQELVKHTQEAMEKENLRLALDAMRDLAQCVNEVKRDNETLRQITNFQLSIENLDQSLAHYGRPKIDGELKITSVERRSKMDRYAFLLDKALLICKRRGDSYDLKDFVNLHSFQVRDDSSGDRDNKKWSHMFLLIEDQGAQGYELFFKTRELKKKWMEQFEMAISNIYPENATANGHDFQMFSFEETTSCKACQMLLRGTFYQGYRCHRCRASAHKECLGRVPPCGRHGQDFPGTMKKDKLHRRAQDKKRNELGLPKMEVFQEYYGLPPPPGAIGPFLRLNPGDIVELTKAEAEQNWWEGRNTSTNEIGWFPCNRVKPYVHGPPQDLSVHLWYAGPMERAGAESILANRSDGTFLVRQRVKDAAEFAISIKYNVEVKHIKIMTAEGLYRITEKKAFRGLTELVEFYQQNSLKDCFKSLDTTLQFPFKEPEKRTISRPAVGSTKYFGTAKARYDFCARDRSELSLKEGDIIKILNKKGQQGWWRGEIYGRVGWFPANYVEEDYSEYC |
| binds | B cell adapter for phosphoinositide 3-kinase (BCAP) (protein, UniProt Q6ZUJ8 1-805) MAASGVPRGCDILIVYSPDAEEWCQYLQTLFLSSRQVRSQKILTHRLGPEASFSAEDLSLFLSTRCVVVLLSAELVQHFHKPALLPLLQRAFHPPHRVVRLLCGVRDSEEFLDFFPDWAHWQELTCDDEPETYVAAVKKAISEDSGCDSVTDTEPEDEKVVSYSKQQNLPTVTSPGNLMVVQPDRIRCGAETTVYVIVRCKLDDRVATEAEFSPEDSPSVRMEAKVENEYTISVKAPNLSSGNVSLKIYSGDLVVCETVISYYTDMEEIGNLLSNAANPVEFMCQAFKIVPYNTETLDKLLTESLKNNIPASGLHLFGINQLEEEDMMTNQRDEELPTLLHFAAKYGLKNLTALLLTCPGALQAYSVANKHGHYPNTIAEKHGFRDLRQFIDEYVETVDMLKSHIKEELMHGEEADAVYESMAHLSTDLLMKCSLNPGCDEDLYESMAAFVPAATEDLYVEMLQASTSNPIPGDGFSRATKDSMIRKFLEGNSMGMTNLERDQCHLGQEEDVYHTVDDDEAFSVDLASRPPVPVPRPETTAPGAHQLPDNEPYIFKVFAEKSQERPGNFYVSSESIRKGPPVRPWRDRPQSSIYDPFAGMKTPGQRQLITLQEQVKLGIVNVDEAVLHFKEWQLNQKKRSESFRFQQENLKRLRDSITRRQREKQKSGKQTDLEITVPIRHSQHLPAKVEFGVYESGPRKSVIPPRTELRRGDWKTDSTSSTASSTSNRSSTRSLLSVSSGMEGDNEDNEVPEVTRSRSPGPPQVDGTPTMSLERPPRVPPRAASQRPPTRETFHPPPPVPPRGR |

No constants are given. Whether binding was seen depends on the method and setting. In cells and extracts the contact can be indirect. A yes stands for co-enrichment or nearness to the bait. Other partners may have been found. Tags and fused reporters may be left off the sequences shown.
